According to the supplement of paper PMC11006884:
Shown are results outside the selection of targets with a hit, which stands elsewhere. Single values of this set are uncertain. The entries are a selection whose mix differs from that of the whole data set.

The chains behind the UniProt entries cited, without tags or fusion partners. Where a name states a change or a piece, a line headed by the entry shows the natural chain unless it says otherwise.
UniProt P78527, whole entry, looked up: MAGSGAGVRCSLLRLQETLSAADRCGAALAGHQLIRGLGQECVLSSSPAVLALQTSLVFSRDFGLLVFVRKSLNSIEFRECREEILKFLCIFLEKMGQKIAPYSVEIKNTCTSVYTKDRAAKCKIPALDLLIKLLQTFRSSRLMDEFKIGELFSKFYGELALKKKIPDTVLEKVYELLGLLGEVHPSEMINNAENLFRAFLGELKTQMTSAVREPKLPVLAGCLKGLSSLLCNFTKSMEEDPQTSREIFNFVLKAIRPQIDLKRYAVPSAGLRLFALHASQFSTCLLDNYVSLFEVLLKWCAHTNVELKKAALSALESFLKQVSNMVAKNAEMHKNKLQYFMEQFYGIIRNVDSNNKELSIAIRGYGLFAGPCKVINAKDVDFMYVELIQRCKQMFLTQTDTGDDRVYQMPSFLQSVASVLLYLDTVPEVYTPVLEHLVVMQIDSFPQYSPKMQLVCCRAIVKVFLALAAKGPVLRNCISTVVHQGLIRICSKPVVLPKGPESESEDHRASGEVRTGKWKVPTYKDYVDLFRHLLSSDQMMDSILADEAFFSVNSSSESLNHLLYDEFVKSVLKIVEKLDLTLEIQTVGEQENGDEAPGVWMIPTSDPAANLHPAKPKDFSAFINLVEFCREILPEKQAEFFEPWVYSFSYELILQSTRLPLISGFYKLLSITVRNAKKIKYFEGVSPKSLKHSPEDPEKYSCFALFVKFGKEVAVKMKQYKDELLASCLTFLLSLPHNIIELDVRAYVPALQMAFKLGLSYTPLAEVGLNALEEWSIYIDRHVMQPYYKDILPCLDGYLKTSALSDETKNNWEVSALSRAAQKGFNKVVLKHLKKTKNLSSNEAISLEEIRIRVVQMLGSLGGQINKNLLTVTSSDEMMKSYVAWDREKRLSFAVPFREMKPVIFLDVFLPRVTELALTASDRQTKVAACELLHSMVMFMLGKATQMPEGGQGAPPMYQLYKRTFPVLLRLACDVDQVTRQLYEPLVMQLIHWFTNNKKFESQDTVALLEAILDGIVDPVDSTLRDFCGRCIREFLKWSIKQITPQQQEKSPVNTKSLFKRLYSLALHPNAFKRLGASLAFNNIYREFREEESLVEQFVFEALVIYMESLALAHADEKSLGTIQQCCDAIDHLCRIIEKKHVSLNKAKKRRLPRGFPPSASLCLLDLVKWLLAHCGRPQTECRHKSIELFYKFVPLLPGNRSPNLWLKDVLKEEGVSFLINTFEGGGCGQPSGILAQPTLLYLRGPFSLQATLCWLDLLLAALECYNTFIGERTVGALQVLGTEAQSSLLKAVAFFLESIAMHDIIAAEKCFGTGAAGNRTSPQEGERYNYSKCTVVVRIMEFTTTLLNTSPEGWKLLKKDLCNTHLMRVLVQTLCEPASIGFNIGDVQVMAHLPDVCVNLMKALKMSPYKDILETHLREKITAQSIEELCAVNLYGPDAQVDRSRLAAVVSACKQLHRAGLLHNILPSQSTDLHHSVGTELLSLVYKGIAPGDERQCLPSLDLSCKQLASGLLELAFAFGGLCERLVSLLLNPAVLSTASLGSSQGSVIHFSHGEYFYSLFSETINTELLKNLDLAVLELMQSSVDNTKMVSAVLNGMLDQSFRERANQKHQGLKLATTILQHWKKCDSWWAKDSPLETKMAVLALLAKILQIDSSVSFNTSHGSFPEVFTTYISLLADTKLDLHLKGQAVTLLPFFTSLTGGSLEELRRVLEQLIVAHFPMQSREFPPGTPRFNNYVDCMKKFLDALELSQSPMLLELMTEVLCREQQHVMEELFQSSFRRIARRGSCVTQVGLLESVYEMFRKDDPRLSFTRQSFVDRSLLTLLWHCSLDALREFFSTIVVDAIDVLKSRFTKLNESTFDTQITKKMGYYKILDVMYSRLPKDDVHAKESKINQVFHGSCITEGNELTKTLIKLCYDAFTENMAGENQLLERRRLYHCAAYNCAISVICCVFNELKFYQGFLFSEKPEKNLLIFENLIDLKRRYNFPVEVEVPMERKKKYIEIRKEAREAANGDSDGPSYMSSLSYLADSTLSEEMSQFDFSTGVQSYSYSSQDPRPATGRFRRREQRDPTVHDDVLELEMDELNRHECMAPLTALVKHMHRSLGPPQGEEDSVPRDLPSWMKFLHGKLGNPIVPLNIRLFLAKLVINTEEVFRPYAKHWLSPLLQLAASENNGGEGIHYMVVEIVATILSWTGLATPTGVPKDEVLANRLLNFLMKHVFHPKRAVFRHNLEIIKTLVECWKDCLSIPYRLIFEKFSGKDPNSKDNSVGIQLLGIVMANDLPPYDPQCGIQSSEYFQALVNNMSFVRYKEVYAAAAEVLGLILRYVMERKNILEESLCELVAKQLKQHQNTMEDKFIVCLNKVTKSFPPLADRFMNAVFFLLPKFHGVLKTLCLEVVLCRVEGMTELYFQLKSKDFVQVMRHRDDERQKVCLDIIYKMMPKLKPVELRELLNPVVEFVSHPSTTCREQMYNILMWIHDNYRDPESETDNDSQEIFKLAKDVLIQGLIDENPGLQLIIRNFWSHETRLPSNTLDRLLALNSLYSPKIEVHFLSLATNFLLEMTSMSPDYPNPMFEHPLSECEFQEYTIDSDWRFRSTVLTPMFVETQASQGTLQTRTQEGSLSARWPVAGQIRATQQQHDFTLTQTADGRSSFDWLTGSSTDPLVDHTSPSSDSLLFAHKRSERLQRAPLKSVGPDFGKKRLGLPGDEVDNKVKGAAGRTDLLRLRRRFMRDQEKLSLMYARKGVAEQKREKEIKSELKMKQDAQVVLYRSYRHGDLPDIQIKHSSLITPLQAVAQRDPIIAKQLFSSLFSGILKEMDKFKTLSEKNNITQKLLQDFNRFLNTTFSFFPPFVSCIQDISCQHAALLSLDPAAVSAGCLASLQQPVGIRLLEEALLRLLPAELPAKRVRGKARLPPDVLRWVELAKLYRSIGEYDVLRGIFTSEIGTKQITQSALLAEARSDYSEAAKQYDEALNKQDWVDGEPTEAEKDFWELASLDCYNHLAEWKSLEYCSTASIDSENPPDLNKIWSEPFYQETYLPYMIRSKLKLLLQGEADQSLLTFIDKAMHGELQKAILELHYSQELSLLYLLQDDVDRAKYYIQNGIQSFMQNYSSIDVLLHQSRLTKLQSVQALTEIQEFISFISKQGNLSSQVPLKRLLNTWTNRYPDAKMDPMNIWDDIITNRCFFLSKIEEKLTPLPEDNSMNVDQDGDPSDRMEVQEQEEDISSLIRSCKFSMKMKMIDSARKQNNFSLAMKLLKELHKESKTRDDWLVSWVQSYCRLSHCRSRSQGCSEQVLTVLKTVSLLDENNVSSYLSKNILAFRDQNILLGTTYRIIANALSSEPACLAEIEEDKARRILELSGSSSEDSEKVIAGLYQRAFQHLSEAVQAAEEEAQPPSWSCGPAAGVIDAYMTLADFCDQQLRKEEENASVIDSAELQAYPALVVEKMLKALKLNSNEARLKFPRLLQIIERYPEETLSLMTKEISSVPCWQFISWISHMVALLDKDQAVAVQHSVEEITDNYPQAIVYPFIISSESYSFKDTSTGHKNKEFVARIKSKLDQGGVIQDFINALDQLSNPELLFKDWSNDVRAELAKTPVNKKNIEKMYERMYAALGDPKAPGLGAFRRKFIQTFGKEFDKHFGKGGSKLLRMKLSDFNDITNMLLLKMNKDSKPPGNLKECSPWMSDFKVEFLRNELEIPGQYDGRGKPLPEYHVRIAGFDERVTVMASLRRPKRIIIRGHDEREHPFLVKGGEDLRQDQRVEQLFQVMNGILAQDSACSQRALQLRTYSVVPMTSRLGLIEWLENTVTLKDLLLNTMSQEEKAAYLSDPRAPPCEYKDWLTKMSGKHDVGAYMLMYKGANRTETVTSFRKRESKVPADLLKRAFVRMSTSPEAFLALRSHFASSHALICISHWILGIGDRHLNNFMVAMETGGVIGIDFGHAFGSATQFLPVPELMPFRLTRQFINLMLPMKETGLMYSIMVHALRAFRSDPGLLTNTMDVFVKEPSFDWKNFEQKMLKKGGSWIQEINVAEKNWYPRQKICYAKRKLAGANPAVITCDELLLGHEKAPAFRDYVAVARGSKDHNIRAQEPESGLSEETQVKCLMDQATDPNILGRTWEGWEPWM
UniProt Q00610: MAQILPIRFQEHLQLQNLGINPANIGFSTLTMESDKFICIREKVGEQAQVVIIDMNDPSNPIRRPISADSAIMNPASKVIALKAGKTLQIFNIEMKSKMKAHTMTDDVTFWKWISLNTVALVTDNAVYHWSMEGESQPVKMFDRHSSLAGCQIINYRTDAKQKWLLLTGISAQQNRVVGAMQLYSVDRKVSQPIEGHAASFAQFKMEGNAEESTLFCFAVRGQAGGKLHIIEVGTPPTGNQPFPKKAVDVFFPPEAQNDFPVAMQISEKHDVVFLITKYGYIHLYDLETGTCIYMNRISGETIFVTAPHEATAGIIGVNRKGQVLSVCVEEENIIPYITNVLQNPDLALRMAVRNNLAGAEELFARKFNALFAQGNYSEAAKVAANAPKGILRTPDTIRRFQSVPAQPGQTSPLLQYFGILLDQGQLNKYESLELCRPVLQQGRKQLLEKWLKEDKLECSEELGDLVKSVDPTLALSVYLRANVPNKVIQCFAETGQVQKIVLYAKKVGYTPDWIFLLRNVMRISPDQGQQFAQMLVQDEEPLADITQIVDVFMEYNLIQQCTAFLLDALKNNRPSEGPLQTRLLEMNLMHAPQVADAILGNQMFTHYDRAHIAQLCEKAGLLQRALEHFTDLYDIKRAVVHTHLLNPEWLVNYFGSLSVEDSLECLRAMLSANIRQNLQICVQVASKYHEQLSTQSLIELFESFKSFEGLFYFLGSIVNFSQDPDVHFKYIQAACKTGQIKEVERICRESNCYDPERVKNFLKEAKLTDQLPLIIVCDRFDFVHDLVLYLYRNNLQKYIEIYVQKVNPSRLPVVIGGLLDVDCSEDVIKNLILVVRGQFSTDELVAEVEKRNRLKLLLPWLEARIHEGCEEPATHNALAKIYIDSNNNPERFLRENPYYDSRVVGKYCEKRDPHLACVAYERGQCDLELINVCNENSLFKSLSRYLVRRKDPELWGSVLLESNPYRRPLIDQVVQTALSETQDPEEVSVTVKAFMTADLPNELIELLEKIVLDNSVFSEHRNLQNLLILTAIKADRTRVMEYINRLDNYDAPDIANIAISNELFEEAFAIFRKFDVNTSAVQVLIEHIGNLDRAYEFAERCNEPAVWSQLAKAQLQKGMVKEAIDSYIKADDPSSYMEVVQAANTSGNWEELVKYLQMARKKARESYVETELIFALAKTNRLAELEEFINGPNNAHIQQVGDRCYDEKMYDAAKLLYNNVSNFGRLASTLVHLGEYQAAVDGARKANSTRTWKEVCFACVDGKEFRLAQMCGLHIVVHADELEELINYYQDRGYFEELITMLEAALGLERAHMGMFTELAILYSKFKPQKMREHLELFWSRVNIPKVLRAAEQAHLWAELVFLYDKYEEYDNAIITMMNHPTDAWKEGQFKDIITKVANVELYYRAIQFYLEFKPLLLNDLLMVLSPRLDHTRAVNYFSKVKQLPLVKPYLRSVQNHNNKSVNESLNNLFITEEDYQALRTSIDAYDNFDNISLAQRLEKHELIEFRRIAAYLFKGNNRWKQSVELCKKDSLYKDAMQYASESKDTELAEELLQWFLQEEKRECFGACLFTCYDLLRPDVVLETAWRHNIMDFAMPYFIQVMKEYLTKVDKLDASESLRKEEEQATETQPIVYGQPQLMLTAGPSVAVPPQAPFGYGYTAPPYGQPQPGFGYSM
UniProt P63208, whole entry, looked up: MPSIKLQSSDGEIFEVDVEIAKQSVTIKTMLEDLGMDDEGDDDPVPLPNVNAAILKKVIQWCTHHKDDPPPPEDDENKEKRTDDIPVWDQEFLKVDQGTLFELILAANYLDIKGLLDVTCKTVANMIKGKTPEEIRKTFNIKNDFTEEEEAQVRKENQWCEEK
UniProt P86790: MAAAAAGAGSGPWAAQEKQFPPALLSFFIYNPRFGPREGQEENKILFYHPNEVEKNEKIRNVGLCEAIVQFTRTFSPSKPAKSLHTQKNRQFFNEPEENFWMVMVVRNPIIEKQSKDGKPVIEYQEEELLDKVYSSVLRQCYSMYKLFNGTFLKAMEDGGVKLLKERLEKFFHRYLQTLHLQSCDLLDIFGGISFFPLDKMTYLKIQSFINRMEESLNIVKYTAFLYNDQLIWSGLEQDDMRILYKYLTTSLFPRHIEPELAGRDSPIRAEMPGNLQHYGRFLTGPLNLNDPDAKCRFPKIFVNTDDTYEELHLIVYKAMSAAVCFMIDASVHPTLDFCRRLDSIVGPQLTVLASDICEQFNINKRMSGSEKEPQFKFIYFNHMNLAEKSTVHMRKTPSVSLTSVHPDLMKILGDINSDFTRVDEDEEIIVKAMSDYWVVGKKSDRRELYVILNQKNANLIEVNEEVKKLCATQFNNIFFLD
UniProt P62316, whole entry, looked up: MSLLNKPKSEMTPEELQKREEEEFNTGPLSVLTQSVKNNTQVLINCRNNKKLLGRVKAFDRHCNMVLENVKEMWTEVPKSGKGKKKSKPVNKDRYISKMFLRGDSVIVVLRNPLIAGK

Compound: COC(=O)/C=C/c1ccccc1 [methyl cinnamate]
Experiment: log2 ratio of iodoacetamide-alkyne labeling of the cysteine site, DMSO over compound (competition); higher = stronger covalent engagement of the cysteine by the compound, active = 1 or more
Conditions: 500 µM; treatment time 1 h; system: HEK293T cell lysate
Method in brief: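 Three replicates, each with duplicate channels, were prepared from HEK293T lysate (2 mg/mL) treated with vehicle or electrophile at 500 µM for 1 h at ambient temperature. Iodoacetamide alkyne was then applied for 1 h, and samples were clicked to sCIP-TMT reagents, pooled, trypsin-digested overnight at 37 °C, enriched on streptavidin, acid-eluted and analysed on Orbitrap Eclipse LC-MS/MS with FAIMS, with FragPipe quantification. The log2 competition ratio per cysteine is the mean control-channel divided by the mean compound-channel reporter intensity. Cysteines quantified in only one replicate were left out.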

log2 ratio of iodoacetamide-alkyne labeling, inactive:
UniProt P68363_C347 0.166
EWSR1 C543 (UniProt Q01844) 0.13
UniProt P78527_C630 0.338
UniProt P78527_C3837 0.282
EXOSC10 C83 (UniProt Q01780) -0.0183
FKBP1A C23 (UniProt P62942) -0.0568
CLTC C1528 (UniProt Q00610) 0.0255
RPS27A C145 (UniProt P62979) 0.298
KIF23 C135 (UniProt Q02241) 0.604
UniProt P62263_C54 -0.0249
GALK2 C407 (UniProt Q01415) 0.293
CLTC C666 (UniProt Q00610) -0.108
UniProt Q02040_C549 0.519
HMGCS1 C86 (UniProt Q01581) 0.113
UniProt P78527_C1229 -0.356
HNRNPU C450 (UniProt Q00839) 0.0317
PFKP C123 (UniProt Q01813) -0.12
GTF2I C215 (UniProt P78347) 0.138
UniProt P78527_C931 -0.0513
UniProt P78527_C478 0.415
PLCB3 C892 (UniProt Q01970) 0.779
CLTC C328 (UniProt Q00610) -0.298
SPTBN1 C604 (UniProt Q01082) 0.315
UniProt P68363_C316 0.0878
SKP1 C120 (UniProt P63208) 0.17
P86790_C65 (UniProt P86791+P86790) 0.186
PPP2CA C269 (UniProt P67775) 0.205
UniProt P62917_C114 0.341
CCT2 C412 (UniProt P78371) 0.00154
SORD C106 (UniProt Q00796) 0.122
CCT2 C395 (UniProt P78371) 0.0823
UniProt P63244_C207 0.0966
UniProt P63241_C73 -0.146
NTHL1 C290 (UniProt P78549) -0.0758
UniProt P62913_C150 0.27
AP2B1 C918 (UniProt P63010) -0.139
UniProt P62316_C46 0.28

Already shown: entries from further up.
log2 ratio of iodoacetamide-alkyne labeling, inactive:
PLCB3 C892 (UniProt Q01970) 0.779
CLTC C328 (UniProt Q00610) -0.298
SPTBN1 C604 (UniProt Q01082) 0.315
